# According to the supplement of paper PMC8728848:
# The list shows a part of the results.
# Key:
# Test in all cases: glycan array binding signal (z-score within array); higher = stronger binding
# Conditions in all cases: glycan notation: IUPAC condensed, linker removed
# [1] = target: Fuc(a1-2)Gal(b1-4)GlcNAc(b1-3)Gal(b1-4)GlcNAc(b1-3)Gal(b1-4)GlcNAc
# Procedure, shortened: (§1)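 Glycan array data came from 3228 arrays in the Consortium for Functional Glycomics database, and only arrays with an available protein sequence were kept. Glycan names were put into IUPAC-condensed notation, and columns mapping to the same glycan were averaged. The binding signal is a within-array Z-score, averaged across arrays of one protein sequence run at different concentrations or buffers and across linkers. A negative Z-score can be read as non-binding.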
# [2] = target: Fuc(a1-2)Gal(b1-4)GlcNAc(b1-3)GalNAc
# Procedure, shortened: as §1
# [3] = target: Fuc(a1-2)Gal(b1-4)GlcNAc(b1-3)[Fuc(a1-2)Gal(b1-4)GlcNAc(b1-6)]GalNAc
# Procedure, shortened: as §1
# [4] = target: Fuc(a1-2)Gal(b1-4)GlcNAc(b1-3)[Fuc(a1-3)[Gal(b1-4)]GlcNAc(b1-6)]Gal(b1-4)Glc
# Procedure, shortened: as §1
# [5] = target: Fuc(a1-2)Gal(b1-4)GlcNAc(b1-6)GalNAc
# Procedure, shortened: as §1
# [6] = target: Fuc(a1-2)Gal(b1-4)GlcNAc6S
# Procedure, shortened: as §1
# [7] = target: Fuc(a1-2)Gal(b1-4)[Fuc(a1-3)]GlcNAc
# Procedure, shortened: as §1
# [8] = target: Fuc(a1-2)Gal(b1-4)[Fuc(a1-3)]GlcNAc(b1-2)Man(a1-3)[Fuc(a1-2)Gal(b1-4)[Fuc(a1-3)]GlcNAc(b1-2)Man(a1-6)]Man(b1-4)GlcNAc(b1-4)[Fuc(a1-6)]GlcNAc
# Procedure, shortened: as §1
# [9] = target: Fuc(a1-2)Gal(b1-4)[Fuc(a1-3)]GlcNAc(b1-2)[Fuc(a1-2)Gal(b1-4)[Fuc(a1-3)]GlcNAc(b1-4)]Man(a1-3)[Fuc(a1-2)Gal(b1-4)[Fuc(a1-3)]GlcNAc(b1-2)Man(a1-6)]Man(b1-4)GlcNAc(b1-4)GlcNAc
# Procedure, shortened: as §1
# [10] = target: Fuc(a1-2)Gal(b1-4)[Fuc(a1-3)]GlcNAc(b1-3)Gal(b1-4)[Fuc(a1-3)]GlcNAc
# Procedure, shortened: as §1
# [11] = target: Fuc(a1-2)Gal(b1-4)[Fuc(a1-3)]GlcNAc(b1-3)Gal(b1-4)[Fuc(a1-3)]GlcNAc(b1-3)Gal(b1-4)[Fuc(a1-3)]GlcNAc
# Procedure, shortened: as §1
# [12] = target: Fuc(a1-2)Gal(b1-4)[Fuc(a1-3)]GlcNAc(b1-3)GalNAc
# Procedure, shortened: as §1
# [13] = target: Fuc(a1-2)Gal(b1-4)[Fuc(a1-3)]GlcNAc(b1-3)[Neu5Ac(a2-6)Gal(b1-4)GlcNAc(b1-6)]Gal(b1-4)Glc
# Procedure, shortened: as §1
# [14] = target: Fuc(a1-2)Gal3S(b1-4)GlcNAc
# Procedure, shortened: as §1
# [15] = target: Fuc(a1-2)Gal6S(b1-3)GlcNAc
# Procedure, shortened: as §1
# [16] = target: Fuc(a1-2)Gal6S(b1-3)GlcNAc6S
# Procedure, shortened: as §1
# [17] = target: Fuc(a1-2)Gal6S(b1-4)Glc
# Procedure, shortened: as §1
# [18] = target: Fuc(a1-2)Gal6S(b1-4)Glc6S
# Procedure, shortened: as §1
# [19] = target: Fuc(a1-2)[Gal(a1-3)]Gal
# Procedure, shortened: as §1
# [20] = target: Fuc(a1-2)[Gal(a1-3)]Gal(b1-3)GalNAc
# Procedure, shortened: as §1
# [21] = target: Fuc(a1-2)[Gal(a1-3)]Gal(b1-3)GalNAc(b1-3)Gal(a1-4)Gal(b1-4)Glc
# Procedure, shortened: as §1
# [22] = target: Fuc(a1-2)[Gal(a1-3)]Gal(b1-3)GlcNAc
# Procedure, shortened: as §1
# [23] = target: Fuc(a1-2)[Gal(a1-3)]Gal(b1-3)GlcNAc(b1-2)Man(a1-3)[Fuc(a1-2)[Gal(a1-3)]Gal(b1-3)GlcNAc(b1-2)Man(a1-6)]Man(b1-4)GlcNAc(b1-4)GlcNAc
# Procedure, shortened: as §1
# [24] = target: Fuc(a1-2)[Gal(a1-3)]Gal(b1-3)GlcNAc(b1-2)Man(a1-3)[Fuc(a1-2)[Gal(a1-3)]Gal(b1-3)GlcNAc(b1-2)Man(a1-6)]Man(b1-4)GlcNAc(b1-4)[Fuc(a1-6)]GlcNAc
# Procedure, shortened: as §1
# [25] = target: Fuc(a1-2)[Gal(a1-3)]Gal(b1-3)GlcNAc(b1-3)GalNAc
# Procedure, shortened: as §1
# [26] = target: Fuc(a1-2)[Gal(a1-3)]Gal(b1-3)GlcNAc(b1-6)GalNAc
# Procedure, shortened: as §1
# [27] = target: Fuc(a1-2)[Gal(a1-3)]Gal(b1-4)Glc
# Procedure, shortened: as §1
# [28] = target: Fuc(a1-2)[Gal(a1-3)]Gal(b1-4)GlcNAc
# Procedure, shortened: as §1
# [29] = target: Fuc(a1-2)[Gal(a1-3)]Gal(b1-4)GlcNAc(b1-2)Man
# Procedure, shortened: as §1
# [30] = target: Fuc(a1-2)[Gal(a1-3)]Gal(b1-4)GlcNAc(b1-2)Man(a1-3)[Fuc(a1-2)[Gal(a1-3)]Gal(b1-4)GlcNAc(b1-2)Man(a1-6)]Man(b1-4)GlcNAc(b1-4)GlcNAc
# Procedure, shortened: as §1
# [31] = target: Fuc(a1-2)[Gal(a1-3)]Gal(b1-4)GlcNAc(b1-2)Man(a1-3)[Fuc(a1-2)[Gal(a1-3)]Gal(b1-4)GlcNAc(b1-2)Man(a1-6)]Man(b1-4)GlcNAc(b1-4)[Fuc(a1-6)]GlcNAc
# Procedure, shortened: as §1
# [32] = target: Fuc(a1-2)[Gal(a1-3)]Gal(b1-4)GlcNAc(b1-3)GalNAc
# Procedure, shortened: as §1
# [33] = target: Fuc(a1-2)[Gal(a1-3)]Gal(b1-4)GlcNAc(b1-3)[Fuc(a1-2)[Gal(a1-3)]Gal(b1-4)GlcNAc(b1-6)]GalNAc
# Procedure, shortened: as §1
# [34] = target: Fuc(a1-2)[Gal(a1-3)]Gal(b1-4)GlcNAc(b1-6)GalNAc
# Procedure, shortened: as §1
# [35] = target: Fuc(a1-2)[Gal(a1-3)]Gal(b1-4)[Fuc(a1-3)]Glc
# Procedure, shortened: as §1
# [36] = target: Fuc(a1-2)[Gal(a1-3)]Gal(b1-4)[Fuc(a1-3)]GlcNAc
# Procedure, shortened: as §1
# [37] = target: Fuc(a1-2)[Gal(a1-3)]Gal(b1-4)[Fuc(a1-3)]GlcNAc(b1-3)GalNAc
# Procedure, shortened: as §1
binder,measurement,setting,value
ArathEULS3 TAP (Arabidopsis thaliana) (protein) IDENLYFQGGSMDEKTTGWRGGHVVEGLAGELEQLRARLEHHPQGQREPGGGGSLEITSLYKKAGFMEHHHQHHRHHQRDDGEDDRQSFGVPPPHVDAPPQPHGLYQSQPHFDPYAPTPQAPAPYRSETQFEPHAPPPYRSEPYFETPAPPPSFGHVSHVGHQSPNESYPPEHHRYGGYQQPSNSLLESHGDHSGVTHVAHHSSNQPQSSSGVYHKPDENRLPDNLAGLAGRATVKVYSKAEPNYNLTIRDGKVILAPADPSDEAQHWYKDEKYSTKVKDADGHPCFALVNKATGEAMKHSVGATHPVHLIRYVPDKLDESVLWTESKDFGDGYRTIRMVNNTRLNVDAYHGDSKSGGVRDGTTIVLWDWNKGDNQLWKIFPF,glycan array binding signal (z-score),[1],-1.55
same,glycan array binding signal (z-score),[2],-0.457
same,glycan array binding signal (z-score),[3],0.565
same,glycan array binding signal (z-score),[4],-0.196
same,glycan array binding signal (z-score),[5],-0.606
same,glycan array binding signal (z-score),[6],-1.76
same,glycan array binding signal (z-score),[7],-0.553
same,glycan array binding signal (z-score),[8],1.46
same,glycan array binding signal (z-score),[9],0.621
same,glycan array binding signal (z-score),[10],0.109
same,glycan array binding signal (z-score),[11],0.508
same,glycan array binding signal (z-score),[12],-0.688
same,glycan array binding signal (z-score),[13],-0.644
same,glycan array binding signal (z-score),[14],0.007
same,glycan array binding signal (z-score),[15],-1.19
same,glycan array binding signal (z-score),[16],-0.204
same,glycan array binding signal (z-score),[17],1.85
same,glycan array binding signal (z-score),[18],-1.52
same,glycan array binding signal (z-score),[19],0.114
same,glycan array binding signal (z-score),[20],1.06
same,glycan array binding signal (z-score),[21],-0.79
same,glycan array binding signal (z-score),[22],-0.538
same,glycan array binding signal (z-score),[23],-0.697
same,glycan array binding signal (z-score),[24],-1.04
same,glycan array binding signal (z-score),[25],-0.908
same,glycan array binding signal (z-score),[26],-1.55
same,glycan array binding signal (z-score),[27],1.34
same,glycan array binding signal (z-score),[28],0.444
same,glycan array binding signal (z-score),[29],0.868
same,glycan array binding signal (z-score),[30],-0.837
same,glycan array binding signal (z-score),[31],-0.942
same,glycan array binding signal (z-score),[32],-0.333
same,glycan array binding signal (z-score),[33],0.214
same,glycan array binding signal (z-score),[34],-0.817
same,glycan array binding signal (z-score),[35],-0.729
same,glycan array binding signal (z-score),[36],1.04
same,glycan array binding signal (z-score),[37],1.51

# Reprinted at random: 3 records from the list, in no set order.
binder,measurement,setting,value
ArathEULS3 TAP (Arabidopsis thaliana) (protein) IDENLYFQGGSMDEKTTGWRGGHVVEGLAGELEQLRARLEHHPQGQREPGGGGSLEITSLYKKAGFMEHHHQHHRHHQRDDGEDDRQSFGVPPPHVDAPPQPHGLYQSQPHFDPYAPTPQAPAPYRSETQFEPHAPPPYRSEPYFETPAPPPSFGHVSHVGHQSPNESYPPEHHRYGGYQQPSNSLLESHGDHSGVTHVAHHSSNQPQSSSGVYHKPDENRLPDNLAGLAGRATVKVYSKAEPNYNLTIRDGKVILAPADPSDEAQHWYKDEKYSTKVKDADGHPCFALVNKATGEAMKHSVGATHPVHLIRYVPDKLDESVLWTESKDFGDGYRTIRMVNNTRLNVDAYHGDSKSGGVRDGTTIVLWDWNKGDNQLWKIFPF,glycan array binding signal (z-score),[19],0.114
same,glycan array binding signal (z-score),[31],-0.942
same,glycan array binding signal (z-score),[11],0.508
